Test results published in publication PMC7489042.
Results are given in words; binding and its absence hold for the method and conditions named. Binding seen in cells or lysates may run through a third protein. Some results given as binding are weak or reduced against the parent protein; the word gives no strength.

Sequences of proteins named here, by UniProt entry; tags and fusion partners are left off. Residues count along the entry.
UniProt P38646, residues 47-679: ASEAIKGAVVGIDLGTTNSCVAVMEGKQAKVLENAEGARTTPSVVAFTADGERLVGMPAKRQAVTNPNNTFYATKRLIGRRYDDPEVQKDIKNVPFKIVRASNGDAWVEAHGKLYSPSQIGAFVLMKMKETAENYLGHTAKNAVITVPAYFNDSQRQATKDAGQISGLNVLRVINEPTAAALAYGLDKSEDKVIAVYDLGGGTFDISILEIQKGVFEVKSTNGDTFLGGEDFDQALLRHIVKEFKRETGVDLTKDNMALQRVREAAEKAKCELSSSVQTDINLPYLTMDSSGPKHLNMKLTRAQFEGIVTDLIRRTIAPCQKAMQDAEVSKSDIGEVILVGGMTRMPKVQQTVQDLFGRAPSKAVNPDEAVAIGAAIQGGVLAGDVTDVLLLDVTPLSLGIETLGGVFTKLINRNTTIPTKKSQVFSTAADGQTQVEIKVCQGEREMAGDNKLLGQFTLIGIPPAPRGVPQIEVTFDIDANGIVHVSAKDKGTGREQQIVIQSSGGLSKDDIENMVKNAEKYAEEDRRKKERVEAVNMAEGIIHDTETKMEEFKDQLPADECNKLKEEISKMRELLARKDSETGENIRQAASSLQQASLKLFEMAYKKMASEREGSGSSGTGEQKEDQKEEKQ
UniProt P10809, residues 27-573: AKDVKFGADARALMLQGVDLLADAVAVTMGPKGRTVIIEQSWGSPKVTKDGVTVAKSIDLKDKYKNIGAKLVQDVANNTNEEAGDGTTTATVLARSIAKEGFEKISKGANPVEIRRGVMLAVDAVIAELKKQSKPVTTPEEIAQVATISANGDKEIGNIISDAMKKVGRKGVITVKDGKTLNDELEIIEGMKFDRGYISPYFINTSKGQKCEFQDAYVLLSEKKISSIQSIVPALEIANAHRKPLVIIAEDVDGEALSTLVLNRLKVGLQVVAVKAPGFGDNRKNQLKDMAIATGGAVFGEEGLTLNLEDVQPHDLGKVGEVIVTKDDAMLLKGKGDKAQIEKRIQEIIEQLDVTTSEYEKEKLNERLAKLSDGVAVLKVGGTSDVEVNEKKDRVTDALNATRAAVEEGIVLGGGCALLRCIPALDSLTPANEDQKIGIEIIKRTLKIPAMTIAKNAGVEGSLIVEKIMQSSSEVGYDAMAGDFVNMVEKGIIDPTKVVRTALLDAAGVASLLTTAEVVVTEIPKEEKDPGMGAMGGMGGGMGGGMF
UniProt P21796: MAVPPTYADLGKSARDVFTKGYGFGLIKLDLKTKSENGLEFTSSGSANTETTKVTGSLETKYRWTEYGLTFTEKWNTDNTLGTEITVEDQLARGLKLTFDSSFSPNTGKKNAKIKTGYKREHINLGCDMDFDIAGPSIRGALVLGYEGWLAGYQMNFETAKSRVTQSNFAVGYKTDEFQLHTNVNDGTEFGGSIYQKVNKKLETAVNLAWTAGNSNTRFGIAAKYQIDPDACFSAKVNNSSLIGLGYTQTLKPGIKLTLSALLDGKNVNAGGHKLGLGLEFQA

Molecular target: mitochondrial heat shock protein 70kD (HSPA9) (human (endogenous in HEK293)) (UniProt P38646)
Experiment: co-IP; co-IP of HSPA9 and its interacting proteins in HEK293 cells, control or overexpressing miPEP133; western blot

## Heat shock protein 60 (from UniProt P10809 27-573)
  binding: binds

## Voltage Dependent Anion Channel 1 (from UniProt P21796 1-283)
  binding: binds
